A short description of this series: general procedure: Fmoc solid-phase peptide synthesis; Rink amide MBHA resin (substitution about 0.3 mmol/g). To be noted: whole synthesis, acetate; for final HPLC purity: analytical liquid phase (HPLC); for final HPLC purity / isolated yield: scale of the general procedure 0.01 mmol; for isolated yield: total yield.

Consider “Phe-Val-Asn-Gln-His-Leu-Cys-Gly-Ser-His-Leu-Val-Glu-Ala-Leu-Glu-Leu-Val-Cys-Gly-Glu-Arg-Gly-Phe-His-Tyr-Thr-Pro-Lys(PEG5CH2CO-γGlu-eicosandioic acid)-NH2”, for which the isolated mass was 3.9 g, the “final HPLC purity” value was determined as 97.7% and the isolated yield is on record as 6.1%.
Consider “Phe-Val-Asn-Gln-His-Leu-Cys-Gly-Ser-His-Leu-Val-Glu-Ala-Leu-Glu-Leu-Val-Cys-Gly-Glu-Arg-Gly-Phe-His-Tyr-Thr-Pro-Lys-Thr-Lys(PEG5CH2CO-γGlu-eicosandioic acid)-NH2”, for which the “final HPLC purity” value came to 98.5% and the isolated yield stood at 7.1%.
Take “Phe-Val-Asn-Gln-His-Leu-Cys-Gly-Ser-His-Leu-Val-Glu-Ala-Leu-Glu-Leu-Val-Dap-Gly-Glu-Arg-Gly-Phe-His-Tyr-Thr-Pro-Lys(PEG5CH2CO-γGlu-eicosandioic acid)-NH2”: the isolated mass is 3.5 g, the “final HPLC purity” value was determined as 98.8% and the isolated yield was 5.5%.

The record behind these values is US20260085103A1 (CHENGDU AODA BIOTECHNOLOGY CO., LTD, priority 2022, published 2026).
